Experimental findings from patent US20110045008A1 are described below.

The chains behind the UniProt entries cited, without tags or fusion partners. Where a name states a change or a piece, a line headed by the entry shows the natural chain unless it says otherwise. Residues count along the entry.
UniProt P02671: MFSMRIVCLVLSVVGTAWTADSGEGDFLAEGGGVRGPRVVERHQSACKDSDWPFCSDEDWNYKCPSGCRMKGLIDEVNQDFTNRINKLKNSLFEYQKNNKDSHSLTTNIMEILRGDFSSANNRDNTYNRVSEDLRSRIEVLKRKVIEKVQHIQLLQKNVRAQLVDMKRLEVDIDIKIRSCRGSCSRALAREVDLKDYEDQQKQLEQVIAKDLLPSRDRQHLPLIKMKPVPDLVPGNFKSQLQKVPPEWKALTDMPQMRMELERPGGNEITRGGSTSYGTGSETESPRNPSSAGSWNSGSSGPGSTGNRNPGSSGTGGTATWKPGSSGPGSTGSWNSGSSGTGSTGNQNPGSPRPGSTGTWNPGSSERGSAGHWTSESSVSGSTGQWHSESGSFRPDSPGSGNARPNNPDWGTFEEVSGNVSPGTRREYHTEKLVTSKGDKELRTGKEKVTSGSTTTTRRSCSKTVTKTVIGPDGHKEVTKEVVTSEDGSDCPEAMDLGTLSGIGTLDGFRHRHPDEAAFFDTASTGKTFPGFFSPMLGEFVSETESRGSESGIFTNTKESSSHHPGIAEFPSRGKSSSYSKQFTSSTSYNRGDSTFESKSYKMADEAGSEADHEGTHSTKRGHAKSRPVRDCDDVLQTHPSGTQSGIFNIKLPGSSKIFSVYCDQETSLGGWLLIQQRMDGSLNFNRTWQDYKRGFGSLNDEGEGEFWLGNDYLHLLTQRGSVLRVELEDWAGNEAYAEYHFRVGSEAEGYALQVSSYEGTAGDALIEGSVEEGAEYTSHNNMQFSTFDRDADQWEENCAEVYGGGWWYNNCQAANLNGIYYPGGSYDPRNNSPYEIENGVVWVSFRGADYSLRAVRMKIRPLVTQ
UniProt P02675: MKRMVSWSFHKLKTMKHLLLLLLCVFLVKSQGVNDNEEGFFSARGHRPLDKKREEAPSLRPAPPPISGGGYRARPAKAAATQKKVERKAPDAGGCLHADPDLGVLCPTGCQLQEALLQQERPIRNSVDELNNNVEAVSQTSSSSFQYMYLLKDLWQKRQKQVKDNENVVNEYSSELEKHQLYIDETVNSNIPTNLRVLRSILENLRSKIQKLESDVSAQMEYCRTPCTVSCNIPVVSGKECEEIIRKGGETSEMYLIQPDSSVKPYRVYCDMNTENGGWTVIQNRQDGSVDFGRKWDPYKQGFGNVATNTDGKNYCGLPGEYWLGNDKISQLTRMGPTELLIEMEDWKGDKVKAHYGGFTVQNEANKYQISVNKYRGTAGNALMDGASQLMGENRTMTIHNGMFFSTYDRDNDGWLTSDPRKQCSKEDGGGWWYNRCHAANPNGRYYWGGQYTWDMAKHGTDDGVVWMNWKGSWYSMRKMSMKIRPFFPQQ
UniProt P02679: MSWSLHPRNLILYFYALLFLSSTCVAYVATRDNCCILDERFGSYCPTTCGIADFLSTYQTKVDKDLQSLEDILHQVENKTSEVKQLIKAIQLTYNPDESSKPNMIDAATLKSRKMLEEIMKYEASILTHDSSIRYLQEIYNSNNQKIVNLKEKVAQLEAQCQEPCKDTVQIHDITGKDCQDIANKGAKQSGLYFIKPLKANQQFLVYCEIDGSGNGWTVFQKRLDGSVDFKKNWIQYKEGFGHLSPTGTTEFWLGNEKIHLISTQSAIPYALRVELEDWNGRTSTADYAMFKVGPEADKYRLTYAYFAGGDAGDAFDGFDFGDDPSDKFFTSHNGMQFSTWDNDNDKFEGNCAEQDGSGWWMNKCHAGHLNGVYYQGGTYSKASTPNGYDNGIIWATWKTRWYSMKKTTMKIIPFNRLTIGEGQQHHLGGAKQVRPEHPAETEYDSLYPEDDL
UniProt P05106, residues 27-788: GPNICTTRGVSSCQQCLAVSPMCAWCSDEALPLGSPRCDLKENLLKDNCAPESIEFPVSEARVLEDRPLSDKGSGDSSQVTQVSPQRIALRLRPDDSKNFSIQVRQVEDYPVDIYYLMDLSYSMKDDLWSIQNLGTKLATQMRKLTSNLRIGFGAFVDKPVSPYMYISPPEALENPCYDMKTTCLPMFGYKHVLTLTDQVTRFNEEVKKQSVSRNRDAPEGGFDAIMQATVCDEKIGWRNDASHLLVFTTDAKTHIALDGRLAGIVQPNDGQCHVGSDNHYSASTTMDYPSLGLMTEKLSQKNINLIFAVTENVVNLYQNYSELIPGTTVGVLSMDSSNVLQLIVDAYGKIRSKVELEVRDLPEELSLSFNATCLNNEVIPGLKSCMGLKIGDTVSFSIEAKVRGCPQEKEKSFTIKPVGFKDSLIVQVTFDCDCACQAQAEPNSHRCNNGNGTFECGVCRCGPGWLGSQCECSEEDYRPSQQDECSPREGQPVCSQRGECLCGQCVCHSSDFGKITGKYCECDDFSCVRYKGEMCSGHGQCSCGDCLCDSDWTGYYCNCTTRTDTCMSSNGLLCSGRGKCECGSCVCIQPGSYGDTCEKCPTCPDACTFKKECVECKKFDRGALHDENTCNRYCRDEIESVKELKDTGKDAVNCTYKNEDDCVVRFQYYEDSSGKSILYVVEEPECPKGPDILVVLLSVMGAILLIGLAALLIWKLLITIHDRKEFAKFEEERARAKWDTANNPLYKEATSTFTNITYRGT

These are yes or no findings as the source states them, for the method shown. Some results given as binding are weak or reduced against the parent protein; the word gives no strength.

In experiment [1] the target is partially digested fibrin (human) (UniProt P02671+P02675+P02679). The experiment is described as follows: ELISA on partially plasmin-digested fibrin, 500 nM protein, anti-His tag detection.
The target of experiment [2] is platelet GPIIIa (integrin beta3) on platelets (human) (UniProt P05106). The experiment in a line: ELISA on coated platelets, anti-His tag detection.
For experiment [3], the target named is T1, GPIIIa(49-66) peptide (human).
T1 sequence (peptide): CAPESIEFPVSEARVLED
The experiment in a line: ELISA, coated peptide, anti-His tag detection. In general terms: ELISA stands for enzyme-linked immunosorbent assay.

The target of experiment [4] is T2, mouse platelet GPIIIa on wild type mouse platelets (mouse) (UniProt O54890).
T2 sequence (looked up): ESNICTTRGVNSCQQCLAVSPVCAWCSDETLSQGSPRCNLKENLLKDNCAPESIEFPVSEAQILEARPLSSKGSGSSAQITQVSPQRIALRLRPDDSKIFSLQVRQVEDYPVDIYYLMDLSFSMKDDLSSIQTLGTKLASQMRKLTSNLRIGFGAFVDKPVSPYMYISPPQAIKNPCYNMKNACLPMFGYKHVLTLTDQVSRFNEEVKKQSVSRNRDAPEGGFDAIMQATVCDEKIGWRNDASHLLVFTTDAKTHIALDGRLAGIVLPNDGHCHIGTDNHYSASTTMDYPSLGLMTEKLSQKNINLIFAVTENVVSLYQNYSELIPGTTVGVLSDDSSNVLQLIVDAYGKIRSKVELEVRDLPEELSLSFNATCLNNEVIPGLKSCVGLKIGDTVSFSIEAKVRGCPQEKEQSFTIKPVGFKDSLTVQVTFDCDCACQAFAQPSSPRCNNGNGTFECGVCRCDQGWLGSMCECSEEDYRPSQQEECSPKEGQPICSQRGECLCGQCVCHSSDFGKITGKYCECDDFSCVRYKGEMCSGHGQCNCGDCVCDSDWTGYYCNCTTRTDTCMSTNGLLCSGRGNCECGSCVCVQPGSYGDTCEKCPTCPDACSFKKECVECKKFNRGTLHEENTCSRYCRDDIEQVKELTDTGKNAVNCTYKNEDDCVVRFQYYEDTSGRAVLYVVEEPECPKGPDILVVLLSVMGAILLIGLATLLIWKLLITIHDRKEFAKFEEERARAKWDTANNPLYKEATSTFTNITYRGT
The experiment is described as follows: ELISA, coated wild type against GPIIIa-/- mouse platelets, anti-His tag detection.

B1: scFv-A11-linker-kringle-1 (SLK) (protein, not shown: small tags and cut ends)
chain: MAEVQLLESGGGLVQPGGSLRLSCAASGFTFSSYAMSWVRQAPGKGLEWVSSITSTGMETRYADSVKGRFTISRDNSKNTLYLQMNSLRAEDTAVYYCAKGKSHFDYWGQGTLVTVSSGGGGSGGGGSGGGGSTDIQMTQSPSSLSASVGDRVTITCRASQSISSYLNWYQQKPGKAPKLLIYTASFLQSGVPSRFSGSGSGTDFTLTISSLQPEDFATYYCQQRKSYPRTFGQGTKVEIKRGSTSGGSTSGGSTSGSGSGICKTGNGKNYRGTMSKTKNGITCQKWSSTSPHRPRFSPATHPSEGLEENYCRNPDNDPQGPWCYTTDPEKRYDYCDILE
Consider B1, for which the binding result in experiment [1] and in experiment [2] was “binds” in each case.

B2: scFv-A11 (scFv, not shown: small tags and cut ends)
scFv: MAEVQLLESGGGLVQPGGSLRLSCAASGFTFSSYAMSWVRQAPGKGLEWVSSITSTGMETRYADSVKGRFTISRDNSKNTLYLQMNSIRAEDTAVYYCAKGKSHFDYWGQGTLVTVSSSGGGGSGGGGSGGGGTDIQMTQSPSSISASVGDRVTITCRASQSISSYLNWYQQKPGKAPKLLIYTASFLQSGVPSRFSGSGSGTDFTLTISSLQPEDFATYYCQQRKSYPRTFGQGTKVEIKR
With B2, the binding result in experiment [3], in experiment [2] and in experiment [4] was “binds” each time.
